Laboratory results taken from publication PMC6181050.
Results are given in words; binding and its absence hold for the method and conditions named. Binding seen in cells or lysates may run through a third protein. Binding can be weak; no strength is given.

Target: T1, PSAG (Chlamydomonas reinhardtii) (UniProt P14224)
T1 sequence: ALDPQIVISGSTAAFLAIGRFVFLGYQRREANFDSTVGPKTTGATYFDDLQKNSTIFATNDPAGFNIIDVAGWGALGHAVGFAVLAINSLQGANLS
Assay: cross-linking; isolated PSI-LHCI supercomplex preparation (0.2 mg Chl/mL, 200 mM HEPES-NaOH pH 8, 0.05% beta-DDM) treated with 0.5 mM DSG on ice for 2 h; product identified by immunoblotting

**Q.** LHCA1 (Chlamydomonas reinhardtii) was tested. Which binding did it give?
**A.** The binding was “binds”.
